Data published in paper PMC10714548.
These are yes or no findings as the source states them, for the method shown. Binding seen in cells or lysates may run through a third protein. Some binding calls cover weakened binding; strength is not graded here.

Chains of the proteins cited; added tags and fusions are not shown. Residues count along the entry.
UniProt Q9BRR6, residues 23-497: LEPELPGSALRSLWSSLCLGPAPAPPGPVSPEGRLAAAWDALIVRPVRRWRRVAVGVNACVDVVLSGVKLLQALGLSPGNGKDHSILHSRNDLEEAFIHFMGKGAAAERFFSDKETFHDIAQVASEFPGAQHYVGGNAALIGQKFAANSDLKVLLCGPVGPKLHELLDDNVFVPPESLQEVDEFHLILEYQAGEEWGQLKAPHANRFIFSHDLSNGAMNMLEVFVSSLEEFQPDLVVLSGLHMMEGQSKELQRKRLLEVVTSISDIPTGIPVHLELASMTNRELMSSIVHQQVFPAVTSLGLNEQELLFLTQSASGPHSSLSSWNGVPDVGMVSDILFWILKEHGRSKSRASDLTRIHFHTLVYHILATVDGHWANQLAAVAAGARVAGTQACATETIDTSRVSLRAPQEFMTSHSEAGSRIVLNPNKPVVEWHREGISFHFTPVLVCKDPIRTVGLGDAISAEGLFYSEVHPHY

Target: ADP-dependent glucokinase (ADPGK) fused with a 6 × His-tag (UniProt Q9BRR6)
Test: co-IP; Pierce Co-IP kit; His-tag antibody (IgG antibody as control) coupled to the resin; precleared lysate (1 μg/μl) of cells expressing ADPGK-6 × His incubated at 4 °C overnight; eluate analysed by Western blotting

binding: binds
B1: Aldolase C (ALDOC) (enzyme, UniProt P09972 1-364)
chain: MPHSYPALSAEQKKELSDIALRIVAPGKGILAADESVGSMAKRLSQIGVENTEENRRLYRQVLFSADDRVKKCIGGVIFFHETLYQKDDNGVPFVRTIQDKGIVVGIKVDKGVVPLAGTDGETTTQGLDGLSERCAQYKKDGADFAKWRCVLKISERTPSALAILENANVLARYASICQQNGIVPIVEPEILPDGDHDLKRCQYVTEKVLAAVYKALSDHHVYLEGTLLKPNMVTPGHACPIKYTPEEIAMATVTALRRTVPPAVPGVTFLSGGQSEEEASFNLNAINRCPLPRPWALTFSYGRALQASALNAWRGQRDNAGAATEEFIKRAEVNGLAAQGKYEGSGEDGGAAAQSLYIANHAY
